Data as given in patent publication US7371764B2, “Quinolin-isoquinolin-and quinazolin-oxyalkylamides and their use as fungicides” (priority 2002, dated 2008).
Some entries share one result that the patent states for a list of compounds.

Columns and labels:
[1] = test system: Phytophthora infestans; assay type: in vivo; conditions: 200 ppm; tomato leaf disks; assessed four days after inoculation
[2] = test system: Erysiphe graminis f.sp. tritici; assay type: in vivo; conditions: 200 ppm
[3] = test system: Pythium ultimum; experiment: Pythium ultimum (Damping off) growth inhibition in potato dextrose broth, microtiter plate; assay type: cell-based; conditions: 20 ppm; 24° C.; after 48 hours
[4] = test system: Plasmopara viticola; assay type: in vivo; conditions: 200 ppm
[5] = test system: Erysiphe graminis f.sp. hordei; assay type: in vivo; conditions: 200 ppm
[6] = test system: Botrytis cinerea; assay type: in vivo; conditions: 200 ppm

Row | SMILES | control of fungal infection (preventive fungicidal activity) [1] | control of fungal infection (preventive fungicidal activity) [2] | control of fungal infection (inhibition of growth, determined photometrically) [3] | control of fungal infection (preventive fungicidal activity) [4] | control of fungal infection (preventive fungicidal activity) [5] | control of fungal infection (preventive fungicidal activity) [6]
1 | CCC(Oc1ccc2ncc(Br)cc2c1)C(=O)NC(C)(C)C#CCCCCl (stereo not shown) [91(77), 2-(3-bromo-6-quinolinyloxy)-N-(1-chloro-6-methylhept-4-yn-6-yl) butyramide] | more than 60% | more than 60% | more than 60% | more than 60% | – | –
2 | CC#CC(C)(C)NC(=O)C(CC)Oc1ccc2ncc(Cl)cc2c1 (stereo not shown) [2(58), 2-(3-chloro-6-quinolinyloxy)-N-(4-methyl-pent-2-yn-4-yl) butyramide] | more than 60% | – | – | more than 60% | – | –
3 | CCC(Oc1ccc2ncccc2c1)C(=O)NC(C)(C)C#CCO[Si](C)(C)C(C)(C)C (stereo not shown) [50(1), 2-(6-quinolinyloxy)-N-(1-tert-butyldi-methylsilyloxy-4-methylpent-2-yn-4-yl)butyramide] | more than 60% | more than 60% | – | – | – | –
4 | CCC(Oc1ccc2ncccc2c1)C(=O)NC(C)(C)C#CCO (stereo not shown) [10(1), 2-(6-quinolinyloxy)-N-(1-hydroxy-4-methylpent-2-yn-4-yl) butyramide] | more than 60% | more than 60% | more than 60% | – | more than 60% | –
5 | CC#CC(C)(C)NC(=O)C(CC)Oc1ccc2ncc(C#N)cc2c1 (stereo not shown) [2(96), 2-(3-cyano-6-quinolinyloxy)-N-(4-methylpent-2-yn-4-yl) butyramide] | – | – | – | more than 60% | – | –
6 | CC#CC(C)(C)NC(=O)C(CC)Oc1ccc2c(ccc[n+]2[O-])c1 (stereo not shown) [2(134), 2-(6-quinolinyloxy)-N-(4-methylpent-2-yn-4-yl) butyramide 1-oxide] | – | – | more than 60% | – | – | –
7 | CC#CC(C)(C)NC(=O)C(CC)Oc1ccc2ccncc2c1 (stereo not shown) [2(39), 2-(7-isoquinolinyloxy)-N-(4-methylpent-2-yn-4-yl) butyramide] | – | – | more than 60% | – | – | –
8 | CC#CC(C)(C)NC(=O)C(OCC)Oc1ccc2ncccc2c1 (stereo not shown) [2(17), 2-(6-quinolinyloxy)-2-(ethoxy)-N-(2-methylpent-3-yn-2-yl) acetamide] | – | – | more than 60% | – | more than 60% | –
9 | COCC#CC(C)(C)NC(=O)C(COC)Oc1ccc2ncccc2c1 (stereo not shown) [12(11), 2-(6-quinolinyloxy)-N-(1-methoxy-4-methylpent-2-yn-4-yl) 3-methoxypropionamide] | – | – | more than 60% | – | – | –
10 | CC#CC(C)(C)NC(=O)C(CC)Oc1ccc2ncc(Br)cc2c1 (stereo not shown) [2(77), 2-(3-bromo-6-quinolinyloxy)-N-(4-methylpent-2-yn-4-yl) butyramide] | more than 60% | more than 60% | more than 60% | more than 60% | – | more than 60%
11 | CCC(Oc1ccc2ncc(Br)cc2c1)C(=O)NC(C)(C)C#CCCCC#N (stereo not shown) [90(77), 2-(3-bromo-6-quinolinyloxy)-N-(1-cyano-6-methylhept-4-yn-6-yl) butyramide] | more than 60% | – | more than 60% | more than 60% | – | –
12 | CC#CC(C)(C)NC(=O)C(CC)Oc1cc(Br)c2ncc(Br)cc2c1 (stereo not shown) [2(115), 2-(3,8-dibromo-6-quinolinyloxy)-N-(4-methylpent-2-yn-4-yl) butyramide] | – | more than 60% | more than 60% | more than 60% | – | more than 60%
13 | CCC(Oc1ccc2ncccc2c1)C(=O)NC(C)(C)C#CCOC (stereo not shown) [12(1), 2-(6-quinolinyloxy)-N-(1-methoxy-4-methylpent-2-yn-4-yl)butyramide] | more than 60% | – | – | – | – | –
14 | CC#CC(C)(C)NC(=O)C(COC)Oc1ccc2ccncc2c1 (stereo not shown) [2(49), 2-(7-isoquinolinyloxy)-N-(2-methylpent-3-yn-2-yl)-3-methoxypropionamide] | – | – | – | more than 60% | – | –
15 | CC#CC(C)(C)NC(=O)C(CC)Oc1ccc2ncccc2c1 (stereo not shown) [2(1), 2-(6-quinolinyloxy)-N-(4-methylpent-2-yn-4-yl) butyramide] | more than 60% | – | more than 60% | more than 60% | – | –
16 | CC#CC(C)(C)NC(=O)C(CC)Oc1ccc2ncncc2c1 (stereo not shown) [2(20), 2-(6-quinazolinoxy)-N-(4-methylpent-2-yn-4-yl) butyramide] | more than 60% | – | more than 60% | – | – | –
